Test results taken from paper PMC6277416.

Protein sequences, listed by entry. Tags and fused reporters are not part of them.
UniProt Q8R3S6: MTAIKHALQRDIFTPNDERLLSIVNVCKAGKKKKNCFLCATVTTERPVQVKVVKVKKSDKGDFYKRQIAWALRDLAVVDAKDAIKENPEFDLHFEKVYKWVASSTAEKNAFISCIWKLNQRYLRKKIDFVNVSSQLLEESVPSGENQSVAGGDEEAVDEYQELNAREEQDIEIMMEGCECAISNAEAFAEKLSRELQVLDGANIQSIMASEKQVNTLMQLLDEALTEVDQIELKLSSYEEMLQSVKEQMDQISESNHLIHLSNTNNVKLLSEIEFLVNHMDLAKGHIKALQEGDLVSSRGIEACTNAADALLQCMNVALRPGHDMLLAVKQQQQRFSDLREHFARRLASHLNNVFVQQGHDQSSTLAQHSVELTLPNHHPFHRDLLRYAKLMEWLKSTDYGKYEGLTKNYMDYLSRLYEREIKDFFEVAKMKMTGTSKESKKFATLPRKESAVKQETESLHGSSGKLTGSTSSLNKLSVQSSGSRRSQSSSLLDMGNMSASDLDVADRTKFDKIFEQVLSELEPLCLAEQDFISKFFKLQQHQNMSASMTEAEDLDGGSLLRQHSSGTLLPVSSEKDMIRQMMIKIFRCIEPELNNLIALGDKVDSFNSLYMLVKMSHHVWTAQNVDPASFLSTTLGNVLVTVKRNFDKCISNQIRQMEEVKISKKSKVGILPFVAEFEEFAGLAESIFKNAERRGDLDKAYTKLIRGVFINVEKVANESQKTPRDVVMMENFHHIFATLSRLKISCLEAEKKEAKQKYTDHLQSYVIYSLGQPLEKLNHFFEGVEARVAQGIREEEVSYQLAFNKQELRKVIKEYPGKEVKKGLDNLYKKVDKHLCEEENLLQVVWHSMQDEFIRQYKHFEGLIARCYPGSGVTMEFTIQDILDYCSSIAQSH
UniProt Q9D4H1: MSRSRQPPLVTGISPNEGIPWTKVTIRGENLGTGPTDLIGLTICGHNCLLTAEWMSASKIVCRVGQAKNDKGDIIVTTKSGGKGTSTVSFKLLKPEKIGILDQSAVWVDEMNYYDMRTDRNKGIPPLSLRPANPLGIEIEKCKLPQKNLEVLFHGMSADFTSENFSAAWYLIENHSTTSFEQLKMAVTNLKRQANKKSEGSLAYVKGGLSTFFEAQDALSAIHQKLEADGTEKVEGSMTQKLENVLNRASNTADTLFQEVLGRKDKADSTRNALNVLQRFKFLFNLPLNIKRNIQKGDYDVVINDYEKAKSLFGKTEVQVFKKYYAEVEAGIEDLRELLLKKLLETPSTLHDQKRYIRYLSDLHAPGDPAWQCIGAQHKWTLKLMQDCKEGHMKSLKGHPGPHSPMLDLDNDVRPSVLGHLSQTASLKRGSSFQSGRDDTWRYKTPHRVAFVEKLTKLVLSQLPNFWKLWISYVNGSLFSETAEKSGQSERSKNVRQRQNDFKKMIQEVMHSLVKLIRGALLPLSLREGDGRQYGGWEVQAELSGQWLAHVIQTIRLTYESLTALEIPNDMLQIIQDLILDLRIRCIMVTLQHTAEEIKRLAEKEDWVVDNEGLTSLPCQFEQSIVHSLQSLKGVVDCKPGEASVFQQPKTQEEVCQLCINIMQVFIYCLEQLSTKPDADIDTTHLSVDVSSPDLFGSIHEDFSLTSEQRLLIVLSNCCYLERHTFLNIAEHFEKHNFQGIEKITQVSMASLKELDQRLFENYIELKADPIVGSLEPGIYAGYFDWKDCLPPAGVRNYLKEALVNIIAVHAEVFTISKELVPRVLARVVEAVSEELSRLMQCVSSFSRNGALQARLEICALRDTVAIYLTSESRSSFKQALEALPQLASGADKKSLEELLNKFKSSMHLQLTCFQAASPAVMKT
UniProt O35250: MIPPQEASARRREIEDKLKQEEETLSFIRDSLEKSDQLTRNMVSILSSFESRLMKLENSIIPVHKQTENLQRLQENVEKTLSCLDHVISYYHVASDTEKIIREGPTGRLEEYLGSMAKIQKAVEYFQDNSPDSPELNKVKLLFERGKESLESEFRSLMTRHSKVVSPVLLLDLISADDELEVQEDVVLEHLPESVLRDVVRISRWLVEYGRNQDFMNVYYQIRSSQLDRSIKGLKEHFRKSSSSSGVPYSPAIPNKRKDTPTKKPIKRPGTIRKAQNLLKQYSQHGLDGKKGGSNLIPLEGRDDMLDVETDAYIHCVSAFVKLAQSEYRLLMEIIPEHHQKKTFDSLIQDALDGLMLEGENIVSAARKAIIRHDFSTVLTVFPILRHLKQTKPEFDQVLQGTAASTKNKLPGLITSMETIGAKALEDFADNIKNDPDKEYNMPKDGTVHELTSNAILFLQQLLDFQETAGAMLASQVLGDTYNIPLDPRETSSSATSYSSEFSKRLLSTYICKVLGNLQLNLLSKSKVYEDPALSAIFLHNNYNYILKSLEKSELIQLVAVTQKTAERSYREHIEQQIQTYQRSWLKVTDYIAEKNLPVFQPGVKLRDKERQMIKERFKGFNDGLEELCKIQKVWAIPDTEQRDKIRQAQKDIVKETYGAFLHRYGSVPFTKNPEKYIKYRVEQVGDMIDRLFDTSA
UniProt Q6KAR6: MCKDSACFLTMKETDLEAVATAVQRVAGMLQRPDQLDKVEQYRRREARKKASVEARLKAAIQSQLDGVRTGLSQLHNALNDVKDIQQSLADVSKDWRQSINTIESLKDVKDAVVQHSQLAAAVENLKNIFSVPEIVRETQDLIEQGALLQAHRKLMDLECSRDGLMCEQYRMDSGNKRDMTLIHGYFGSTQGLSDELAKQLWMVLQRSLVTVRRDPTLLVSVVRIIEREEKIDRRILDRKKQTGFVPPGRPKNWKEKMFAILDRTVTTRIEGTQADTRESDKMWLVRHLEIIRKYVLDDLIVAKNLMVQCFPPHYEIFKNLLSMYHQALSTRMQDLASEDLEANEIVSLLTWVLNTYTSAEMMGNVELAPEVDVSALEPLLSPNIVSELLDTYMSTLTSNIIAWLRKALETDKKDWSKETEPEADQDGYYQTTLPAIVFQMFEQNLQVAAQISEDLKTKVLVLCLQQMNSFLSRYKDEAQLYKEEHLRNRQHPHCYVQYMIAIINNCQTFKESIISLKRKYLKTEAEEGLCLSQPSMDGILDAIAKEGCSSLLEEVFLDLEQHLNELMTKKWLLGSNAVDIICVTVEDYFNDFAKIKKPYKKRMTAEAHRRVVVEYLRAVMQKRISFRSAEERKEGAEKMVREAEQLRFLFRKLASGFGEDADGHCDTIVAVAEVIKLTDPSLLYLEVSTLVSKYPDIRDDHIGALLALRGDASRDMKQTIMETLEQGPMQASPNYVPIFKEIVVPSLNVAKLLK
UniProt O35382: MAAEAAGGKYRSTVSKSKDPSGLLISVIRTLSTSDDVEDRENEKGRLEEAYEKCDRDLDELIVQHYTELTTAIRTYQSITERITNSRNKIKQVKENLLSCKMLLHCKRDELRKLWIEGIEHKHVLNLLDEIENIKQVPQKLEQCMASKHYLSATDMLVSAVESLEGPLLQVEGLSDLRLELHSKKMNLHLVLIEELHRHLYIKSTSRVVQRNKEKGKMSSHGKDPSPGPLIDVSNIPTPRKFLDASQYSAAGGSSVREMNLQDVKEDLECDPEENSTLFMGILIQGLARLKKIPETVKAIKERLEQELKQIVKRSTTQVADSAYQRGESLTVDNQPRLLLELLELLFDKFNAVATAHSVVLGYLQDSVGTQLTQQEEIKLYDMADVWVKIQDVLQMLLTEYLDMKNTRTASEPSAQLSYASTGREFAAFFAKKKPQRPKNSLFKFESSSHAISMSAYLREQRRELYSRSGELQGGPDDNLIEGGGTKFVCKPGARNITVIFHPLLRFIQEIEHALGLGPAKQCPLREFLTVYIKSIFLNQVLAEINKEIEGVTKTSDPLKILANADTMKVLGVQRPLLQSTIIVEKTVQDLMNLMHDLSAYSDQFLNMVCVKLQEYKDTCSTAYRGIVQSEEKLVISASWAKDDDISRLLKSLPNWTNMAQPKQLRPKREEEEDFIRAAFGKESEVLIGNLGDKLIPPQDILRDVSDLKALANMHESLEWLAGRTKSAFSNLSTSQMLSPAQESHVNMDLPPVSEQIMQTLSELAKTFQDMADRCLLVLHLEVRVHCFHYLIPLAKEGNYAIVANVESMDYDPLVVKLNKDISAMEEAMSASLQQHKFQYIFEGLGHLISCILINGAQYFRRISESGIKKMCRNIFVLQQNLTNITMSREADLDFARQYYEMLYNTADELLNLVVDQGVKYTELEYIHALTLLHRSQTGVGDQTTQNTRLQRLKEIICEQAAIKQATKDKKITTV

Legend:
Assay in all cases: affinity purification with mass spectrometry; GFP-Trap_MA beads on lysates of EXO70-GFP, SEC3-GFP or SEC5-GFP knock-in NMuMG cells (20 mM HEPES pH 7.4, 50 mM NaCl, 2 mM EDTA, 0.1% Triton X-100, 4 °C, 30 min), LC-MS/MS; for EXO70-GFP also quantitative full-scan LC-MS/MS from intact or SEC8-shRNA cells (SC2 subunits still recovered)
[1] = target: SEC3-GFP (mouse (endogenous in NMuMG)) (UniProt Q8R3S6)
[2] = target: SEC5-GFP (mouse (endogenous in NMuMG)) (UniProt Q9D4H1)
[3] = target: EXO70-GFP (mouse (endogenous in NMuMG)) (UniProt O35250)
[4] = target: SEC5-GFP (mouse (endogenous in NMuMG)) (UniProt Q9D4H1); remark: listed apart in the source
[5] = target: SEC3-GFP (mouse (endogenous in NMuMG)) (UniProt Q8R3S6); remark: listed apart in the source

SEC5 (from UniProt Q9D4H1 1-924)
binding [1]: binds

SEC6 (from UniProt Q6KAR6 1-755)
binding [1]: binds
binding [2]: binds

SEC3 (from UniProt Q8R3S6 1-894)
binding [2]: binds

SEC8 (from UniProt O35382 1-975)
binding [1]: binds
binding [2]: binds

B1: SNAP23 (protein, UniProt O09044 1-210)
chain: MDNLSPEEVQLRAHQVTDESLESTRRILGLAIESQDAGIKTITMLDEQGEQLNRIEEGMDQINKDMREAEKTLTELNKCCGLCICPCNRTKNFESGKNYKATWGDGGDNSPSNVVSKQPSRITNGQPQQTTGAASGGYIKRITNDAREDEMEENLTQVGSILGNLKNMALDMGNEIDAQNQQIQKITEKADTNKNRIDIANTRAKKLIDS
binding [3]: binds
binding [4]: no binding

B2: RALB (protein, UniProt Q9JIW9 1-206)
chain: MAANKGKSQGSLVLHKVIMVGSGGVGKSALTLQFMYDEFVEDYEPTKADSYRKKVVLDGEEVQIDILDTAGQEDYAAIRDNYFRSGEGFLLVFSITEHESFTATAEFREQILRVKSEEDKIPLLVVGNKSDLEERRQVPVDEARGKAEEWGVQYVETSAKTRANVDKVFFDLMREIRAKKMSENKDKNGRKSSKSKKSFKERCCLL
binding [3]: binds
binding [5]: binds
binding [4]: binds

B3: RALA (protein, UniProt P63321 1-206)
chain: MAANKPKGQNSLALHKVIMVGSGGVGKSALTLQFMYDEFVEDYEPTKADSYRKKVVLDGEEVQIDILDTAGQEDYAAIRDNYFRSGEGFLCVFSITEMESFAATADFREQILRVKEDENVPFLLVGNKSDLEDKRQVSVEEAKNRADQWNVNYVETSAKTRANVDKVFFDLMREIRARKMEDSKEKNGKKKRKSLAKRIRERCCIL
binding [3]: binds
binding [5]: binds
binding [4]: binds

Like-named read-outs stand apart in the source and are kept apart here. These are yes or no findings as the source states them, for the method shown. Binding seen in cells or lysates may run through a third protein. A yes stands for co-enrichment or nearness to the bait. Other partners may have been found. For some assays here: A no says only that the protein was not detected with the bait.
